The list shows a part of the results. Values are raw readings; no control value is given beside them.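 In the initial screen, polymyxin B was used at a concentration that permeabilizes Salmonella's outer membrane but not its inner membrane. Maximum growth was set by DMSO wells with or without polymyxin B. Since plates varied, data were ranked per plate, and compounds giving the lowest OD600 advanced as hits.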
Test system: Salmonella enterica serovar Typhimurium SL1344
Assay: bacterial growth OD600 after 18 h with compound and polymyxin B; higher = more bacterial growth (less inhibition)
Conditions: 50 µM, Mueller-Hinton broth

Row | Structure (SMILES) | bacterial growth OD600 (polymyxin B 0.75 µg/mL) | bacterial growth OD600 (polymyxin B 1 µg/mL)
1 | COC(=O)[C@@H]1CCCN1C(=O)CC1(c2ccccc2C)CC(=O)N(Cc2ccncc2)C1=O (some centres not stated) | 0.957 | 
2 | CC(=O)NCCC1CCN(Cc2nc(-c3ccc(C(F)(F)F)cc3)no2)CC1 |  | 0.936
3 | COC(=O)c1sccc1S(=O)(=O)N1CCCC(C(=O)c2cccc(Cl)c2)C1 (configuration not stated) |  | 0.002
4 | C=CCN1CC(C(=O)N2CCc3onc(-c4ccccc4F)c3C2)CC1=O (configuration not stated) | 0.816 | 
5 | O=C(NCC1Cc2cccc(-c3ncccn3)c2O1)c1cccs1 (configuration not stated) | 0.957 | 
6 | O=C(c1ccco1)N1CCC(C2CCN(c3ncccn3)CC2)C1 (configuration not stated) | 0.842 | 
7 | CC(C)(C)CN1CC(NC2CCCCC2)CC1=O (configuration not stated) |  | 0.96
8 | O=C(NCc1cccnc1N1CCOCC1)c1cccs1 |  | 1.02
9 | CO[C@H]1[C@H](NC(=O)C(C)C)c2ccccc2C12CCN(C(=O)c1cc3c(nc1Cl)CCC3)CC2 | 0.81 | 
10 | CCN(CC)c1ncccc1CNC(=O)c1ccnc(NC)c1 |  | 0.932
11 | COc1ccc(C(CC(=O)N(C)Cc2nnc(C)o2)c2ccccc2)cc1 (configuration not stated) |  | 0.917
12 | COc1cccc(C2CCCN2C(=O)CCCn2nnnc2CN2CCOCC2)c1 (configuration not stated) |  | 1.02
13 | COc1cc(CC2(CCC(=O)N3CCCC(C)C3)CCC(=O)N2)ccc1F (configuration not stated) | 0.763 | 
14 | Cc1nc(N2CCCC2C(=O)NCc2cccc(C(F)(F)F)c2)nc2cc(S(C)(=O)=O)ccc12 (configuration not stated) | 0.743 | 
15 | Cc1c(CC(=O)N2CCC[C@H]2C(N)=O)c2c(n1Cc1ccccc1)CCCC2=O |  | 1.11
16 | Cc1nc(CNC(=O)CCC2(Cc3ccc(Cl)cc3)CCC(=O)N2)cs1 (configuration not stated) | 0.848 | 

Row | Structure (SMILES) | bacterial growth OD600 (polymyxin B 0.75 µg/mL) | bacterial growth OD600 (polymyxin B 1 µg/mL)
17 | COCCN1CC(C(=O)NCc2cccc(OC(F)(F)F)c2)CCC1=O (configuration not stated) |  | 1.1
18 | Cc1cc(C)n(Cc2cc(C(=O)NCCCN3CCOCC3)n[nH]2)n1 |  | 1.15
19 | COc1ccccc1C1CN(CCNC(=O)c2ccc(N3CCOCC3)cc2)Cc2ccccc2O1 (configuration not stated) | 0.128 | 
20 | COCCn1cnc2cc(NC(=O)C3CCCCC3)cc(C(=O)N(C)CC3Cc4ccccc4O3)c21 (configuration not stated) | 0.685 | 
21 | COc1ccc(C(CC(=O)N2CCCC2)c2ccccc2)cc1 (configuration not stated) |  | 0.821
22 | Cc1ncoc1C(=O)N1CCCC(C(=O)Nc2cccc(-c3ccc(F)cc3)c2)C1 (configuration not stated) |  | 0.868
23 | CC(C)c1cc(C(=O)N2CCc3[nH]nc(-c4ccc(Cl)cc4)c3C2)no1 | 0.507 | 
24 | COC(=O)c1ccc(CN2CCC(CCC(=O)Nc3cccc(OC)c3)CC2)cc1 |  | 0.892
25 | OC(Cc1ccccc1)c1ccc2c(c1)CN(Cc1cccc(F)c1F)CCO2 (configuration not stated) | 0.121 | 
26 | CCOC(=O)N1CCN(C2CCCN(C(=O)c3scc4c3CCCC4)C2)CC1 (configuration not stated) |  | 0.984
27 | CCOC(=O)C1(CCOc2ccccc2)CCCN(Cc2cnn(CC)c2)C1 (configuration not stated) |  | 1.02
28 | O=C(C1=CCCC1)N1CCCC(N2CCN(Cc3ccc4c(c3)OCO4)CC2)C1 (configuration not stated) | 0.766 | 
29 | O=C(Nc1cccc(-c2cc3ccccc3[nH]2)c1)C1CCCN(C2CCOCC2)C1 (configuration not stated) |  | 0.863
30 | c1cncc(CN2CCc3[nH]nc(-c4ccc5c(c4)OCO5)c3C2)c1 | 0.834 | 
31 | O=C(c1cc(F)ccc1F)C1CCCN(C(=O)CN2C(=O)c3ccccc3C2=O)C1 (configuration not stated) |  | 0.79
32 | CCN(CC)CC(O)COc1ccc(CNCC2CCCCC2)cc1OC (configuration not stated) |  | 1.09

Given tab-delimited: 2 of the compounds above
Row	Structure (SMILES)	bacterial growth OD600 (polymyxin B 0.75 µg/mL)	bacterial growth OD600 (polymyxin B 1 µg/mL)
21	COc1ccc(C(CC(=O)N2CCCC2)c2ccccc2)cc1 (configuration not stated)		0.821
22	Cc1ncoc1C(=O)N1CCCC(C(=O)Nc2cccc(-c3ccc(F)cc3)c2)C1 (configuration not stated)		0.868

From the supplement of paper PMC12889115
